Our source for the binding values is publication PMC9984397.

Experiment [1] addresses T1, AtSCC3 (SISTER CHROMATID COHESION 3), yeast two-hybrid fusion in pGBKT7 (Arabidopsis thaliana) (UniProt O82265).
T1 sequence: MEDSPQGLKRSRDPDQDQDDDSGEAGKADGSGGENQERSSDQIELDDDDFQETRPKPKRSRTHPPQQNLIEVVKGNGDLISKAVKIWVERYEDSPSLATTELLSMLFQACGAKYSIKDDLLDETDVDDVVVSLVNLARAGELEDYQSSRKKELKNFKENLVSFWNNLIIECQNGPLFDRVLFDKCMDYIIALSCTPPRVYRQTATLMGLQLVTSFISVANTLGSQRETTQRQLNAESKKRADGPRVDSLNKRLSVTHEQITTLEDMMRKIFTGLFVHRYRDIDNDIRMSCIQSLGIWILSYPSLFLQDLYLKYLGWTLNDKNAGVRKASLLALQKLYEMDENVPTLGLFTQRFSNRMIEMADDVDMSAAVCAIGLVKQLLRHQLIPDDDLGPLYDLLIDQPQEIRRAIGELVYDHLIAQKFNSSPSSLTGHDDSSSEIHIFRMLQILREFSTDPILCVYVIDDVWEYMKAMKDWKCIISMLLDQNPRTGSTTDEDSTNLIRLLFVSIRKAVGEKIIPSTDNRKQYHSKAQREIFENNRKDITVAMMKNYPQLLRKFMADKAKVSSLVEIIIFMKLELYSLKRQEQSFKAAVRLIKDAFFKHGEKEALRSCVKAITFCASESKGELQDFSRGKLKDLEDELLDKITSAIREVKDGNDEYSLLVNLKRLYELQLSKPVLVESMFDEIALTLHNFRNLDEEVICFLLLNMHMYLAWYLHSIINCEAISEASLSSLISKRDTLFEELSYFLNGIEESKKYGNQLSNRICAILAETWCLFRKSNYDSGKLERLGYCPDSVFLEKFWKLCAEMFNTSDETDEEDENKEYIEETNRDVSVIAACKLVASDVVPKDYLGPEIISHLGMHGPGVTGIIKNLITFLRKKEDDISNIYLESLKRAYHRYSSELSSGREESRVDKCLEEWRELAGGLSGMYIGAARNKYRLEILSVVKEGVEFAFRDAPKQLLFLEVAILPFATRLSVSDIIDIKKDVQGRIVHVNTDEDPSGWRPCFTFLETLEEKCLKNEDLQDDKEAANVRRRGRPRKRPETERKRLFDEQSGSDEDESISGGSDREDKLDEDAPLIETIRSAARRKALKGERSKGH
Kind of experiment: two-hybrid; yeast AH109, pGBKT7 and pGADT7 constructs co-transformed; growth on SD-Leu-Trp-His-Ala, 3-7 days at 30 C.

Experiment [2] has as its target T2, NSCC3: AtSCC3 fused with the N-terminal of LUC (Arabidopsis thaliana) (UniProt O82265).
T2 sequence: T1 sequence
Kind of experiment: split reporter; firefly luciferase complementation imaging; N- and C-terminal LUC fragment fusions co-infiltrated into N. benthamiana leaves, imaged 48 h later with luciferin.

Experiment [3] deals with T3, CSCC3: AtSCC3 fused with the C-terminal of LUC (Arabidopsis thaliana) (UniProt O82265).
T3 sequence: T1 sequence
The description is as above.

Experiment [4] has as its target AtBMI1A-YFP (Arabidopsis thaliana). Kind of experiment: co-IP; AtBMI1A/B/C-YFP, AtSYN4-FLAG and AtSCC3-FLAG co-expressed in N. benthamiana leaves; nuclear proteins on anti-GFP magnetic beads overnight at 4 C; blots with anti-GFP and anti-FLAG.
In experiment [5] the target is AtBMI1B-YFP (Arabidopsis thaliana). Described as above.
The target in experiment [6] is AtBMI1C-YFP (Arabidopsis thaliana). The description is as above.

These are yes or no findings as the source states them, for the method shown. Binding calls can cover weak binding; strength is not graded here. Where a sequence is shown, tags or fusion partners need not be part of it. For some assays here: Binding seen in cells or lysates may run through a third protein.

Consider “AtBMI1A, yeast two-hybrid fusion in pGADT7 (Arabidopsis thaliana)”, for which the binding entry in experiment [1] was “binds”. For the molecule “AtSYN1, LUC-fragment fusion (Arabidopsis thaliana)”, in experiment [2], the binding result is on record as “no binding”.

Turning to “AtSYN2, LUC-fragment fusion (Arabidopsis thaliana)”, the binding entry in experiment [2] was “no binding”. For the molecule “AtSYN3, LUC-fragment fusion (Arabidopsis thaliana)”, in experiment [2], the binding entry was “no binding”.

Turning to “CSYN4: AtSYN4 fused with the C-terminal of LUC (Arabidopsis thaliana)”, the binding result in experiment [2] is on record as “binds”.

Regarding “NBMI1A: AtBMI1A fused with the N-terminal of LUC (Arabidopsis thaliana)”, in experiment [3], the binding result is “binds”. Turning to “NBMI1B: AtBMI1B fused with the N-terminal of LUC (Arabidopsis thaliana)”, the binding result in experiment [3] is reported as “binds”. In the case of “NBMI1C: AtBMI1C fused with the N-terminal of LUC (Arabidopsis thaliana)”, the binding entry in experiment [3] is given as “binds”.

B1: AtSCC3-FLAG (protein, UniProt O82265 1-1098)
chain: T1 sequence
Take B1: the binding result in experiment [4], in experiment [5] and in experiment [6] was “binds” throughout.
